Measured values as given in US7425631B2 (Amgen Inc., priority 2003, dated 2008).
Some of these results come from one statement about several compounds together.

Biological target: T1, human B1 receptor (Homo sapiens, UniProt P46663)
T1 construct: expressed in transfected cells
T1 sequence (P46663 1-353): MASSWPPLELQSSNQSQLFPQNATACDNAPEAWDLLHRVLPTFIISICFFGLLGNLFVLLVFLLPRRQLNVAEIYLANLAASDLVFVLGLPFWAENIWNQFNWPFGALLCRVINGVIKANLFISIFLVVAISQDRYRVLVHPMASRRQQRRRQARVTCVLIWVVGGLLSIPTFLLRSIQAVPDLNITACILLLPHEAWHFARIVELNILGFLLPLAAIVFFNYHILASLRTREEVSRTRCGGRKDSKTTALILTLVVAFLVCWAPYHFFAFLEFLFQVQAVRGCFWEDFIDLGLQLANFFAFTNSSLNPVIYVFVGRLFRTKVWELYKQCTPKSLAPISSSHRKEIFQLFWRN
Assay: In vitro assay of human B1 receptor function using calcium flux (aequorin luminescence)
Assay type: cell-based
Details: CHO D-/hB1/Aequorin cells, agonist 20 nM des-Arg10-Kallidin (EC80); read-out: binding IC50's to hB1 receptor function
Procedure: Activation of the Gq linked B1 receptor results in an increase in intracellular calcium. […] Aequorin is a 21-kDa photoprotein that forms a bioluminescent complex when linked to the chromophore cofactor coelenterazine.
Following coelenterazine incubation, an automated flash-luminometer platform was used to dispense the B1 antagonist compounds (dissolved in DMSO and diluted with buffer to the desired concentration (final DMSO concentration <1% DMSO)) to the cell plate, a CCD camera situated underneath the cell plate took 12 images of the cell plate at 5 second intervals to determine if there was any agonist activity with the compounds. The hB1 agonist, des-Arg10-Kallidin, was added to the cell plate and another 12 images were recorded to determine the IC50 of the antagonist(s).

IC50, < 100 nM:
CC(C)(C)NCc1ccc2c(c1)CCC[C@H]2NC(=O)C[C@H](NS(=O)(=O)c1cccc(C(F)(F)F)c1)c1ccc(F)cc1 [a, (3S)-N-((1R)-6-(((1,1-dimethylethyl)amino)-methyl)-1,2,3,4-tetrahydro-1-naphthalenyl)-3-(4-fluorophenyl)-3-(((3-(trifluoromethyl)phenyl)-sulfonyl)amino)propanamide]
CN([C@H](CC(=O)N[C@@H]1CCCc2cc(CN3CCCCC3)ccc21)c1ccccc1)S(=O)(=O)c1cccc(C(F)(F)F)c1 [aa, (3R)-3-(methyl((3-(trifluoromethyl)phenyl)sulfonyl)amino)-3-phenyl-N-((1R)-6-(1-piperidinylmethyl)-1,2,3,4-tetrahydro-1-naphthalenyl)propanamide]
Cc1c(S(=O)(=O)N[C@H](CC(=O)NC2CCCc3cc(CN4CCCCC4)ccc32)c2ccccc2)sc2ccc(Cl)cc12 (stereo partly drawn) [ae, (3R)-3-(((5-chloro-3-methyl-1-benzothien-2-yl)sulfonyl)amino)-3-phenyl-N-(6-(1-piperidinylmethyl)-1,2,3,4-tetrahydro-1-naphthalenyl)propanamide]
CC(C)(C)NCc1ccc2c(c1)CCC[C@H]2NC(=O)C[C@@H](NS(=O)(=O)c1cccc(OC(F)(F)F)c1)c1ccccc1 [ah, (3R)-N-((1R)-6-(((1,1-dimethylethyl)amino)methyl)-1,2,3,4-tetrahydro-1-naphthalenyl)-3-phenyl-3-(((3-((trifluoromethyl)oxy)phenyl)-sulfonyl)amino)propanamide]
NC(=O)CCNCc1ccc2c(c1)CCC[C@H]2NC(=O)C[C@@H](NS(=O)(=O)c1cccc(C(F)(F)F)c1)c1ccccc1 [an, N~3~-(((5R)-5-(((3R)-3-phenyl-3-(((3-(trifluoromethyl)phenyl)sulfonyl)amino)propanoyl)amino)-5,6,7,8-tetrahydro-2-naphthalenyl)methyl)-beta-alaninamide]
COc1ccc([C@@H](CC(=O)N[C@@H]2CCCc3cc(CNCC(C)(C)C)ccc32)NS(=O)(=O)c2cccc(C(F)(F)F)c2)cn1 [au, (3R)-N-((1R)-6-(((2,2-dimethylpropyl)amino)methyl)-1,2,3,4-tetrahydro-1-naphthalenyl)-3-(6-(methyloxy)-3-pyridinyl)-3-(((3-(trifluoromethyl)phenyl)sulfonyl)amino)propanamide]
COCCNCc1ccc2c(c1)CCC[C@H]2NC(=O)C[C@@H](NS(=O)(=O)c1cccc(C(F)(F)F)c1)c1ccccc1 [bd, (3R)-N-((1R)-6-(((2-(methyloxy)ethyl)amino)methyl)-1,2,3,4-tetrahydro-1-naphthalenyl)-3-phenyl-3-(((3-(trifluoromethyl)phenyl)-sulfonyl)amino)propanamide]
CC(C)CNCc1ccc2c(c1)CCC[C@H]2NC(=O)C[C@@H](NS(=O)(=O)c1ccc(Cl)c(Cl)c1)c1ccccc1 [bg, (3R)-3-(((3,4-dichlorophenyl)sulfonyl)amino)-N-((1R)-6-(((2-methylpropyl)amino)methyl)-1,2,3,4-tetrahydro-1-naphthalenyl)-3-phenylpropanamide]
CC(C)(C)NCc1ccc2c(c1)CCC[C@H]2NC(=O)C[C@@H](NS(=O)(=O)c1cccc(C(F)(F)F)c1)c1ccc(C(F)(F)F)cc1 [bl, (3R)-N-((1R)-6-(((1,1-dimethylethyl)amino)methyl)-1,2,3,4-tetrahydro-1-naphthalenyl)-3-(4-(trifluoromethyl)phenyl)-3-(((3-(trifluoromethyl)phenyl)sulfonyl)amino)propanamide]
CC(C)(C)NCc1ccc2c(c1)CCC[C@H]2NC(=O)C[C@@H](NS(=O)(=O)c1ccc(Cl)c(Cl)c1)c1ccccc1 [bm, (3R)-3-(((3,4-dichlorophenyl)sulfonyl)amino)-N-((1R)-6-(((1,1-dimethylethyl)amino)methyl)-1,2,3,4-tetrahydro-1-naphthalenyl)-3-phenylpropanamide]
CC(C)(C)NCc1ccc2c(c1)CCC[C@H]2NC(=O)C[C@@H](NS(=O)(=O)c1ccc2nsnc2c1)c1ccccc1 [bo, (3R)-3-((2,1,3-benzothiadiazol-5-ylsulfonyl)amino)-N-((1R)-6-(((1,1-dimethylethyl)amino)methyl)-1,2,3,4-tetrahydro-1-naphthalenyl)-3-phenylpropanamide]
NC(=O)[C@H]1CCCN(Cc2ccc3c(c2)CCC[C@H]3NC(=O)C[C@@H](NS(=O)(=O)c2cccc(C(F)(F)F)c2)c2ccccc2)C1 [bq, (3S)-1-(((5R)-5-(((3R)-3-phenyl-3-(((3-(trifluoromethyl)phenyl)sulfonyl)amino)propanoyl)amino)-5,6,7,8-tetrahydro-2-naphthalenyl)methyl)-3-piperidinecarboxamide]
CC(C)(C)NCc1ccc2c(c1)CCC[C@H]2NC(=O)C[C@@H](NS(=O)(=O)c1cc2cc(Cl)ccc2s1)c1ccccc1 [br, (3R)-3-(((5-chloro-1-benzothien-2-yl)sulfonyl)amino)-N-((1R)-6-(((1,1-dimethylethyl)amino)methyl)-1,2,3,4-tetrahydro-1-naphthalenyl)-3-phenylpropanamide]
CC(C)(C)NCc1ccc2c(c1)CCC[C@H]2NC(=O)C[C@@H](NS(=O)(=O)c1cccc(C(F)(F)F)c1)c1cc(Br)cc(Br)c1 [bt, N-[6-(tert-Butylamino-methyl)-1,2,3,4-tetrahydro-naphthalen-1-yl]-3-(3,5dibromo-phenyl)-3-(3-trifluoromethyl-benzenesulfonylamino)-propionamide]
O=C(CC(NS(=O)(=O)c1ccc(Cl)c(Cl)c1)c1ccc(F)cc1)NC1CCOc2cc(CN3CCCCC3)ccc21 (stereo not drawn) [by, 3-(3,4-Dichloro-benzenesulfonylamino)-3-(4-fluoro-phenyl)-N-(7-piperidin-1-ylmethyl-chroman-4-yl)-propionamide]
O=C(C[C@@H](NS(=O)(=O)c1ccc(Cl)c(Cl)c1)c1ccc(F)cc1)N[C@@H]1CCCc2cc(CN3CCCCC3)ccc21 [bz, 3-(3,4-Dichloro-benzenesulfonylamino)-3-(4-fluoro-phenyl)-N-(6-piperidin-1-ylmethyl-1,2,3,4-tetrahydro-naphthalen-1-yl)-propionamide]
CC(C)(C)NCc1ccc2c(c1)CCC[C@H]2NC(=O)C[C@@H](NS(=O)(=O)c1cccc(C(F)(F)F)c1)c1ccsc1 [cv, N-[6-(tert-Butylamino-methyl)-1,2,3,4-tetrahydro-naphthalen-1-yl]-3-thiophen-3-yl-3-(3-trifluoromethyl-benzenesulfonylamino)-propionamide]
O=C(C[C@@H](NS(=O)(=O)c1cccc(C(F)(F)F)c1)c1ccccc1)N[C@@H]1CCCc2cc(CN3CCCC3)ccc21 [cz, 3-Phenyl-N-(6-pyrrolidin-1-ylmethyl-1,2,3,4-tetrahydro-naphthalen-1-yl)-3-(3-trifluoromethyl-benzenesulfonylamino)-propionamide]
O=C(C[C@@H](NS(=O)(=O)c1cccc(C(F)(F)F)c1)c1ccc(F)cc1)N[C@@H]1CCc2cc(CNCCN3CCCC3)ccc2C1 [db, 3-(4-Fluoro-phenyl)-N-{6-[(2-pyrrolidin-1-yl-ethylamino)-methyl]-1,2,3,4-tetrahydro-naphthalen-2-yl}-3-(3-trifluoromethyl-benzenesulfonylamino)-propionamide]
CC(C)(C)c1ccc(S(=O)(=O)N[C@H](CC(=O)N[C@@H]2CCCc3cc(CNC4CCC4)ccc32)c2ccc(F)cc2)cc1 [de, 3-(4-tert-Butyl-benzenesulfonylamino)-N-(6-cyclobutylaminomethyl-1,2,3,4-tetrahydro-naphthalen-1-yl)-3-(4-fluoro-phenyl)-propionamide]
CC(C)(C)c1ccc(S(=O)(=O)N[C@H](CC(=O)N[C@@H]2CCCc3cc(CN4CCCCC4)ccc32)c2ccc(F)cc2)cc1 [dh, 3-(4-tert-Butyl-benzenesulfonylamino)-3-(4-fluoro-phenyl)-N-(6-piperidin-1-ylmethyl-1,2,3,4-tetrahydro-naphthalen-1-yl)-propionamide]
CC(C)CNCc1ccc2c(c1)CCC[C@H]2NC(=O)C[C@@H](NS(=O)(=O)c1ccc(C(C)(C)C)cc1)c1ccc(F)cc1 [dj, 3-(4-tert-Butyl-benzenesulfonylamino)-3-(4-fluoro-phenyl)-N-[6-(isobutylamino-methyl)-1,2,3,4-tetrahydro-naphthalen-1-yl]-propionamide]
CC(C)(C)NCc1ccc2c(c1)CCC[C@H]2NC(=O)C[C@@H](NS(=O)(=O)c1cccc(C(F)(F)F)c1)c1cccc(F)c1 [dl, N-[6-(tert-Butylamino-methyl)-1,2,3,4-tetrahydro-naphthalen-1-yl]-3-(3-fluoro-phenyl)-3-(3-trifluoromethyl-benzenesulfonylamino)-propionamide]
O=C(C[C@@H](NS(=O)(=O)c1cccc(C(F)(F)F)c1)c1ccccc1)N[C@@H]1CCCc2cc(CNC3CCCC3)ccc21 [dr, N-(6-Cyclopentylaminomethyl-1,2,3,4-tetrahydro-naphthalen-1-yl)-3-phenyl-3-(3-trifluoromethyl-benzenesulfonylamino)-propionamide]
